Measurements reported in publication PMC9649694.
These are yes or no findings as the source states them, for the method shown. For part of these data: In cells and extracts the contact can be indirect. Some binding calls cover weakened binding; strength is not graded here. One block for each substance: values may come before it.

Protein sequences, listed by entry. Tags and fused reporters are not part of them. Lines headed by an entry give the natural chain unless they say otherwise; changes in a name come on top. Residues count along the entry.
UniProt Q9H1Y0: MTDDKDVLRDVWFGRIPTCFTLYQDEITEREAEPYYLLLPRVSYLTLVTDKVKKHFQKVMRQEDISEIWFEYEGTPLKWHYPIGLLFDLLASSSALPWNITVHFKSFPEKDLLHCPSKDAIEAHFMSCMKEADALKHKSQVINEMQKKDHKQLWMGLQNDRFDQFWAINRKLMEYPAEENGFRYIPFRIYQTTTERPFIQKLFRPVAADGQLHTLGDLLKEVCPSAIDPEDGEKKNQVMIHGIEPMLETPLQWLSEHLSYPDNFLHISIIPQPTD
UniProt O94817: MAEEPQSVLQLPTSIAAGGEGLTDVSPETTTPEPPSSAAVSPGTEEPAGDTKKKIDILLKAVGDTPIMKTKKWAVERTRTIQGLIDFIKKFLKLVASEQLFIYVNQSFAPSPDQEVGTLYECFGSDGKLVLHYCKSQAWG
UniProt O14818: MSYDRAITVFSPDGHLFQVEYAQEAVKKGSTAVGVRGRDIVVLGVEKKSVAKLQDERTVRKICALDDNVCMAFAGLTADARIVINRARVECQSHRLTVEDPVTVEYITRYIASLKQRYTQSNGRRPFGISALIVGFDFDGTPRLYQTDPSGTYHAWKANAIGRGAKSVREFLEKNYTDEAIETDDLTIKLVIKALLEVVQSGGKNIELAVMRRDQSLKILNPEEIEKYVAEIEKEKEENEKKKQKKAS
UniProt Q99J83: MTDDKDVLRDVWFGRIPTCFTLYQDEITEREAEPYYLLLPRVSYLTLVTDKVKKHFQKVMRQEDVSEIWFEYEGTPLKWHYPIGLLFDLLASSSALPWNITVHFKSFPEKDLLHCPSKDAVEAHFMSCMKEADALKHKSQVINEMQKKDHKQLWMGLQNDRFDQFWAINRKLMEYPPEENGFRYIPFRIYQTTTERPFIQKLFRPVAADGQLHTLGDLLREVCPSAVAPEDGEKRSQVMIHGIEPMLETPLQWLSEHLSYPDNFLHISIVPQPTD
UniProt Q9CQY1: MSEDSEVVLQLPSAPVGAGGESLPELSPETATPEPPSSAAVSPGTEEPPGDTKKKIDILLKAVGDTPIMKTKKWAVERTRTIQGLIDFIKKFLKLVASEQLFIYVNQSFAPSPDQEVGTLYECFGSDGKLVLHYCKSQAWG
UniProt O60260: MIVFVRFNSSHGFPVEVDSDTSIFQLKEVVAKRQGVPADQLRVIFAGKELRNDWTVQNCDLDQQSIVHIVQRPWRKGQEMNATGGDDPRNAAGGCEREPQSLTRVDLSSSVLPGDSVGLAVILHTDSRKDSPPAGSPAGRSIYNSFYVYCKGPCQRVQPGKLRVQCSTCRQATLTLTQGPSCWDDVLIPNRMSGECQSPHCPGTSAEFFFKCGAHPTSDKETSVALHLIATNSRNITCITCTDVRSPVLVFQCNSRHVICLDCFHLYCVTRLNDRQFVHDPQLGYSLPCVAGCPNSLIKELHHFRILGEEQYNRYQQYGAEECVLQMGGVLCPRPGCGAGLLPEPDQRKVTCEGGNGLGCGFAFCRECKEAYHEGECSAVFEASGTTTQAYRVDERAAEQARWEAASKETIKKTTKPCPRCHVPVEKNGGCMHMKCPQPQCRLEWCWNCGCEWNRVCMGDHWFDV
UniProt P21796: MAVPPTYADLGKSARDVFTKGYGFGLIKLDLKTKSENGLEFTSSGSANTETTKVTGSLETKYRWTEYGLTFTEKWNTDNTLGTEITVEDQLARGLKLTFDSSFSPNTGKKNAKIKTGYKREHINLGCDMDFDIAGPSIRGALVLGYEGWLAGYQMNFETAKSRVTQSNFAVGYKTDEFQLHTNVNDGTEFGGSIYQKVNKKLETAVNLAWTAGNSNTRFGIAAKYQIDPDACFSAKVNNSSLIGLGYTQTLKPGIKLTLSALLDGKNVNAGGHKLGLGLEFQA
UniProt Q9BXM7, residues 78-581: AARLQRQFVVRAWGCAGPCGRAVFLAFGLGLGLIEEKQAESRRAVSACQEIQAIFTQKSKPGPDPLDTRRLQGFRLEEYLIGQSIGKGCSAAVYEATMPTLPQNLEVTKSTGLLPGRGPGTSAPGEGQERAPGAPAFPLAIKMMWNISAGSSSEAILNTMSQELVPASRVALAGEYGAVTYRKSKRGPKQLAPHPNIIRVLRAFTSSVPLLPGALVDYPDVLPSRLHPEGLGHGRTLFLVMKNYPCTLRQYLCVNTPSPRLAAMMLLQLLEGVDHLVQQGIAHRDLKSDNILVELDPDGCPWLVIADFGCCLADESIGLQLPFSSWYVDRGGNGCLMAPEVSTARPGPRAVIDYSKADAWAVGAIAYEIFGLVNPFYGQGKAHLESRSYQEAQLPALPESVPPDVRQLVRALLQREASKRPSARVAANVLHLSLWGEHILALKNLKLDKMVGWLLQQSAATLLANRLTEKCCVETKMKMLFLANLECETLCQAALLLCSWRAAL
UniProt Q9Z2U0: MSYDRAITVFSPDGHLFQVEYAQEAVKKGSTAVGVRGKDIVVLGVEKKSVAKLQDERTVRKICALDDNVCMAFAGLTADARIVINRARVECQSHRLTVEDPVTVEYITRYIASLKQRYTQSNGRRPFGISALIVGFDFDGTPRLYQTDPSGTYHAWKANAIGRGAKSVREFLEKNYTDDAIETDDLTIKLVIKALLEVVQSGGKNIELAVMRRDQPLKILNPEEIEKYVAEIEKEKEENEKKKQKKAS

Assays:
[1] = biological target: T1, ATG5-12 (endogenous ATG12-ATG5 conjugate of HEK 293 T cells) (human (endogenous in HEK 293 T)) (UniProt Q9H1Y0+O94817); assay: SEC; gel filtration of mitochondrial lysates of YFP-PARK2 expressing HEK 293 T cells treated with DMSO or 10 μM CCCP for 12 h; RIPA buffer, 4 °C; fractions immunoblotted
[2] = biological target: T1, ATG5-12 (endogenous ATG12-ATG5 conjugate of HEK 293 T cells) (human (endogenous in HEK 293 T)); assay: SEC; gel filtration of total cell lysates and of mitochondria-free cytosolic fractions of PARK2 overexpressing cells treated with DMSO or CCCP; RIPA buffer, 4 °C; fractions immunoblotted
[3] = biological target: T1, ATG5-12 (endogenous ATG12-ATG5 conjugate of HEK 293 T cells) (human (endogenous in HEK 293 T)); assay: co-IP; immunoprecipitation of endogenous ATG5 from HA-PARK2 expressing HEK 293 T cells after DMSO or CCCP (10 μM) for 12 h
[4] = biological target: T1, ATG5-12 (endogenous ATG12-ATG5 conjugate of HEK 293 T cells) (human (endogenous in HEK 293 T)); assay: co-IP; endogenous proteins; ATG5-IP from lysates of HEK 293 T or MEF cells under control condition; RIPA lysate, antibody on protein A or G agarose, overnight at 4 °C
[5] = biological target: T1, ATG5-12 (endogenous ATG12-ATG5 conjugate of HEK 293 T cells) (human (endogenous in HEK 293 T)); assay: co-IP; endogenous proteins; ATG5-IP from lysates of HEK 293 T or MEF cells treated with CCCP; RIPA lysate, antibody on protein A or G agarose, overnight at 4 °C
[6] = biological target: ATG5 (endogenous, SH-SY5Y cells) (human (endogenous in SH-SY5Y)) (UniProt Q9H1Y0); assay: co-IP; endogenous proteins in HT-22 and SH-SY5Y cells; with and without mitochondrial stress in HT-22; precipitating antibody not stated
FLAG-PSMA7 = FLAG-PSMA7 (UniProt O14818); assay: co-IP; HEK 293 T cells co-transfected with MYC-PARK2 and/or FLAG-PSMA7, treated with STAURO (1 μM), CCCP (10 μM) or DMSO for 12 h; immunoprecipitation using Flag beads
[7] = biological target: ATG5, full length, overexpressed in HEK293T cells (Fig. S1A and B) (human) (UniProt Q9H1Y0); assay: co-IP; HEK293T cells overexpressing the full-length proteins (Fig. S1A); also after STAURO or CCCP treatment (Fig. S1B); which protein was precipitated not given
[8] = biological target: T2, ATG5-12 (endogenous ATG12-ATG5 conjugate of MEF cells) (mouse (endogenous in MEF)) (UniProt Q99J83+Q9CQY1); assay: co-IP; endogenous proteins; ATG5-IP from lysates of HEK 293 T or MEF cells under control condition; RIPA lysate, antibody on protein A or G agarose, overnight at 4 °C
[9] = biological target: T2, ATG5-12 (endogenous ATG12-ATG5 conjugate of MEF cells) (mouse (endogenous in MEF)); assay: co-IP; endogenous proteins; ATG5-IP from lysates of HEK 293 T or MEF cells treated with CCCP; RIPA lysate, antibody on protein A or G agarose, overnight at 4 °C
[10] = biological target: ATG5 (full-length human Atg5 cDNA in the pGBKT7 bait vector) (human) (UniProt Q9H1Y0); assay: two-hybrid; full-length human Atg5 in pGBKT7 as bait screened against a thymus cDNA library in AH109 yeast; selection without histidine, adenine, tryptophan and leucin

Substance: PSMA7 (endogenous, HEK 293 T cells) (from UniProt O14818 1-248)
binding [4]: binds weakly
binding [5]: binds

Substance: PARK2 (endogenous, SH-SY5Y cells) (from UniProt O60260 1-465)
binding [6]: binds

Substance: PSMA7, full length, overexpressed in HEK293T cells (Fig. S1A and B) (from UniProt O14818 1-248)
binding [7]: binds

Substance: VDAC1 (endogenous, HEK 293 T cells) (from UniProt P21796 1-283)
binding [1]: binds

Substance: PSMA7 amino acids 174-248 (two-hybrid clone 47) (from UniProt O14818 174-248) (domain or fragment)
binding [10]: binds

Second part, the substance after the results:

binding [1]: binds
binding [2]: binds
binding [3]: binds
Substance: PARK6 (endogenous, HEK 293 T cells) (from UniProt Q9BXM7 78-581)

binding [2]: binds
Substance: PARK2, overexpressed (gel filtration of total cell lysates and cytosolic fractions, Fig. S2) (from UniProt O60260 1-465)

binding [3]: binds
Substance: HA-PARK2 (from UniProt O60260 1-465)

binding [1]: binds
Substance: YFP-PARK2 (from UniProt O60260 1-465)

binding (FLAG-PSMA7): binds
Substance: MYC-PARK2 (from UniProt O60260 1-465)

binding [8]: binds weakly
binding [9]: binds
Substance: PSMA7 (endogenous, MEF cells) (from UniProt Q9Z2U0 1-248)
